Experimental data taken from the supplement of paper PMC8858631.
Counter-ions that a name gives are not always drawn. The list shows a part of the results. Rule as the data show it: active = 0.5 or less and inactive = the rest. Many values rest on one well or one pass, so single values are uncertain.

system: SK-MEL-28; assay: EEF2K protein level normalised to actin (western blot) after treatment (ratio (EEF2K/Actin)); higher = more EEF2K protein remaining (less EEF2K suppression); conditions: 5 µM; 24 h

Compound | EEF2K protein level normalised to actin
CCCCC1C(=O)N(c2ccccc2)N(c2ccccc2)C1=O [Phenylbutazone] | inactive: 1
COc1cc2nccc(Oc3ccc(NC(=O)Nc4cc(C)on4)c(Cl)c3)c2cc1OC [Tivozanib (AV-951)] | inactive: 3.28
CN(Cc1cnc2nc(N)nc(N)c2n1)c1ccc(C(=O)N[C@@H](CCC(=O)O)C(=O)O)cc1 [Methotrexate] | inactive: 0.91
CC(C)[C@H]1C(=O)N[C@@H](CCCN=C(N)N)C(=O)NCC(=O)N[C@@H](CC(=O)O)C(=O)N[C@H](Cc2ccccc2)C(=O)N1C | inactive: 1.91
CC[C@]1(O)C[C@@H]2CN(CCc3c([nH]c4ccccc34)[C@@](C(=O)OC)(c3cc4c(cc3OC)N(C)[C@H]3[C@@](O)(C(=O)OC)[C@H](OC(C)=O)[C@]5(CC)C=CCN6CC[C@]43[C@@H]65)C2)C1 [Vinblastine sulfate] | inactive: 0.82
COc1cc(C2Oc3cc([C@H]4Oc5cc(O)cc(O)c5C(=O)[C@@H]4O)ccc3OC2CO)ccc1O (stereo partly specified) [Silibinin] | inactive: 1.49
CO[C@H]1C[C@@H]2CC[C@@H](C)[C@@](O)(O2)C(=O)C(=O)N2CCCC[C@H]2C(=O)O[C@H]([C@H](C)C[C@@H]2CC[C@@H](OP(C)(C)=O)[C@H](OC)C2)CC(=O)[C@H](C)/C=C(\C)[C@@H](O)[C@@H](OC)C(=O)[C@H](C)C[C@H](C)/C=C/C=C/C=C/1C [Ridaforolimus (Deforolimus, MK-8669)] | inactive: 1.13
Cc1ccc(NC(=O)c2ccc(CN3CCN(C)CC3)cc2)cc1Nc1nccc(-c2cccnc2)n1 [Imatinib Mesylate (STI571)] | inactive: 0.65
Cc1cccc(N(C)C(=S)Oc2ccc3ccccc3c2)c1 [Tolnaftate] | inactive: 3.55
C#Cc1cccc(Nc2ncnc3cc4c(cc23)OCCOCCOCCO4)c1 [Icotinib] | inactive: 1.09
CC#CCn1c(N2CCC[C@@H](N)C2)nc2c1c(=O)n(Cc1nc(C)c3ccccc3n1)c(=O)n2C [Linagliptin] | inactive: 0.51
CC1=C(/C=C/C(C)=C/C=C/C(C)=C/C(=O)O)C(C)(C)CCC1 [Tretinoin] | inactive: 0.82
Nc1ccn([C@@H]2O[C@H](CO)[C@@H](O)[C@@H]2O)c(=O)n1 [Cytarabine] | active: 0.35
CO[C@H]1C[C@@H]2CC[C@@H](C)[C@@](O)(O2)C(=O)C(=O)N2CCCC[C@H]2C(=O)O[C@H]([C@H](C)C[C@@H]2CC[C@@H](OCCO)[C@H](OC)C2)CC(=O)[C@H](C)/C=C(\C)[C@@H](O)[C@@H](OC)C(=O)[C@H](C)C[C@H](C)/C=C/C=C/C=C/1C [Everolimus (RAD001)] | inactive: 1.64
CCN(CC)CCNC(=O)c1c(C)[nH]c(/C=C2\C(=O)Nc3ccc(F)cc32)c1C [Sunitinib Malate] | inactive: 1.5
Nc1nc(Cl)nc2c1ncn2[C@H]1C[C@H](O)[C@@H](CO)O1 [Cladribine] | inactive: 3.95
CC(=O)O[C@]1(C(C)=O)CC[C@H]2[C@@H]3C=C(Cl)C4=CC(=O)[C@@H]5C[C@@H]5[C@]4(C)[C@H]3CC[C@@]21C [Cyproterone Acetate] | inactive: 1.43
N=C1CCCN1Cc1[nH]c(=O)[nH]c(=O)c1Cl [Tipiracil hydrochloride] | inactive: 2.22

Compound | EEF2K protein level normalised to actin
O=C(/C=C/C=C/c1ccc2c(c1)OCO2)N1CCCCC1 [Piperine] | inactive: 0.69
Nc1nc(Cl)nc2c1ncn2[C@@H]1O[C@H](CO)[C@@H](O)[C@@H]1F [Clofarabine] | active: 0.31
COc1cccc2c1C(=O)c1c(O)c3c(c(O)c1C2=O)C[C@@](O)(C(=O)CO)C[C@@H]3O[C@H]1C[C@H](N)[C@H](O[C@@H]2CCCCO2)[C@H](C)O1 [Pirarubicin] | inactive: 0.66
CN(C)C/C=C/C(=O)Nc1cc2c(Nc3ccc(F)c(Cl)c3)ncnc2cc1O[C@H]1CCOC1 [Afatinib (BIBW2992)] | active: 0.19
COc1cc2c3cc1Oc1c(OC)c(OC)cc4c1[C@@H](Cc1ccc(O)c(c1)Oc1ccc(cc1)C[C@@H]3N(C)CC2)N(C)CC4 [Berbamine] | inactive: 3.01
Clc1ccc(C(c2ccccc2Cl)C(Cl)Cl)cc1 (stereo unspecified) [Mitotane] | inactive: 1.01
Nc1ccn([C@@H]2O[C@H](CO)[C@@H](O)C2(F)F)c(=O)n1 [Gemcitabine HCl] | active: 0.31
CCNC(=O)[C@@H]1CCCN1C(=O)[C@H](CCCNC(=N)N)NC(=O)[C@H](CC(C)C)NC(=O)[C@@H](CC(C)C)NC(=O)[C@H](Cc1ccc(O)cc1)NC(=O)[C@H](CO)NC(=O)[C@H](Cc1c[nH]c2ccccc12)NC(=O)[C@H](Cc1c[nH]cn1)NC(=O)[C@@H]1CCC(=O)N1 [Leuprolide Acetate] | inactive: 1.75
NCCNc1ccc(NCCN)c2c1C(=O)c1ccncc1C2=O [Pixantrone Maleate] | active: 0.25
S=c1[nH]cnc2nc[nH]c12 [Mercaptopurine (6-MP)] | inactive: 0.58
Cc1c(C(=O)Nc2ccc(N3C[C@@H](C)O[C@@H](C)C3)nc2)cccc1-c1ccc(OC(F)(F)F)cc1 [Sonidegib (Erismodegib, NVP-LDE225)] | inactive: 4.28
CC[C@@]1(O)C(=O)OCc2c1cc1n(c2=O)Cc2cc3c(CN(C)C)c(O)ccc3nc2-1 [Topotecan] | inactive: 9.27
CCC1(O)C(=O)OCc2c1cc1n(c2=O)Cc2c-1nc1ccccc1c2CCNC(C)C (stereo unspecified) [Belotecan (CKD-602) hydrochloride] | inactive: 1.88
O=c1cc[nH]c(=O)[nH]1 [Uracil] | inactive: 1.18
CN(C)c1nc(N(C)C)nc(N(C)C)n1 [Altretamine] | inactive: 1.17
CNC(=O)c1cc(Oc2ccc(NC(=O)Nc3ccc(Cl)c(C(F)(F)F)c3)c(F)c2)ccn1 [Regorafenib (BAY 73-4506)] | inactive: 3.52
CCCCNC(=O)NS(=O)(=O)c1ccc(C)cc1 [Tolbutamide] | inactive: 1.8
O=c1[nH]c(=O)n(C2CCCO2)cc1F (stereo unspecified) | inactive: 0.73

2 entries drawn at random from the list so far:
Compound | EEF2K protein level normalised to actin
NCCNc1ccc(NCCN)c2c1C(=O)c1ccncc1C2=O [Pixantrone Maleate] | active: 0.25
CN(C)C/C=C/C(=O)Nc1cc2c(Nc3ccc(F)c(Cl)c3)ncnc2cc1O[C@H]1CCOC1 [Afatinib (BIBW2992)] | active: 0.19
